Data from patent US20040152868A1, “Compositions and methods for modulating guanylyl cyclase signaling receptor (gc-c) activity and for treating meniere's disease” (priority 2001, published 2004).
At least one peptide structure holds a part that was inferred or is arguable (an end, a ring closure or a residue). Bridge positions count the residues as written; N and C are the ends. Peptide text beside a SMILES is read from it.

Protein sequences, listed by entry. Tags and fused reporters are not part of them. Residues count along the entry.
UniProt P25092, 24-1073: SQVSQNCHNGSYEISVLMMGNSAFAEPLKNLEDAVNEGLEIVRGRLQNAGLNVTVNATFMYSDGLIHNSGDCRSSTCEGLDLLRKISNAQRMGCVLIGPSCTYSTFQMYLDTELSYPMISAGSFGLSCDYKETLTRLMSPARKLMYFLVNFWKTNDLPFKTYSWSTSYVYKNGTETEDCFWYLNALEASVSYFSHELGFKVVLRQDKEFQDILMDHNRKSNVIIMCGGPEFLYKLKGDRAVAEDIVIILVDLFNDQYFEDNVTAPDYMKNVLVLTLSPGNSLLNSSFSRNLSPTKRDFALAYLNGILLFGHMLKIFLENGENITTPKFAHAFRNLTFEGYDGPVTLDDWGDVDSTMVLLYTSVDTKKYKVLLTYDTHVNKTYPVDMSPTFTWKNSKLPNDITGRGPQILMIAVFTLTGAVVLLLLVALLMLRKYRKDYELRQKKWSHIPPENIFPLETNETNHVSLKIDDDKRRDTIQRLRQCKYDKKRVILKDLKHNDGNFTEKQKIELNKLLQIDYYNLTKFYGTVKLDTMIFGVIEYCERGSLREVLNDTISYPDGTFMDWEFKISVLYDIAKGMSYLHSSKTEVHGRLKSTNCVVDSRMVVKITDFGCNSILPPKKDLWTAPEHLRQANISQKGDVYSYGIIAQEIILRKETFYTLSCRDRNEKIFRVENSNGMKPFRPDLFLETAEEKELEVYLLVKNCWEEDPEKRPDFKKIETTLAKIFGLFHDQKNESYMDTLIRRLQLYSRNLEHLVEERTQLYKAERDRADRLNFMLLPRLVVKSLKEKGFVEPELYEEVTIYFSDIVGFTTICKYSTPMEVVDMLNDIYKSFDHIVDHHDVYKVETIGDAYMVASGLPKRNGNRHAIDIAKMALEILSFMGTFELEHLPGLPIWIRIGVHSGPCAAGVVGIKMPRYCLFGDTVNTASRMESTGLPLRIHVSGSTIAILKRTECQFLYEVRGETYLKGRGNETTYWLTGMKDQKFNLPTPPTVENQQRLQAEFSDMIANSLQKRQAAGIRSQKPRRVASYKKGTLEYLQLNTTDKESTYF

Molecular target: T1, guanylyl cyclase (GC-C) receptor (Homo sapiens, UniProt P25092)
T1 construct: stimulation of cGMP in T84 cell cultures may be used as an efficacy assay; endogenous in cells; host or cells: T84 (human colon carcinoma cell line)
Assay: cGMP-efficacy on T84 cells (stimulation of cGMP formation)
Type: cell-based
Details: cGMP formation in T84 cells, efficacy assay of Example 1
Experimental: T84 cells are grown to near confluence in DMEM medium and Ham's F-12 medium (1:1) supplemented with 5% Foetal Calf Serum (FCS), […] in 175 cm^2 culture flasks (Nunc) at 37° C., 5% CO2 and 100% humidity. Cells are harvested in ice-cold PBS and centrifuged at 100×G for 10 min at 4° C. The sedimented cells are lysed in 2.5 ml dist. H2O/culture flask at 0° C. for 30 min and centrifuged at 50,000×G 4° C. for 45 min. The membrane pellet is taken up in binding buffer (50 mM HEPES, 1 mM EDTA, 10 mM MgCl2, pH 7.4) supplemented with 10% sucrose and stored at −80° C. until use.
For stimulation of cGMP formation, cells are seeded in 96-well microtiter plates (Nunc) at a density of 2500 cells/well (˜7576 cells/cm^2) and grown for 3 days before use under the same culture conditions mentioned above.
On the day of analysis growth medium is removed and the T84 cells are washed twice in Dulbeccos Phosphate Buffered Saline™ (D-PBS) containing 6 mM glucose at 37° C. Cells are then incubated at 37° C. for 40 min in the same medium supplemented with 2 mM IBMX (a phosphodiesterase inhibitor) and increasing concentrations of test compounds. The reaction is stopped by addition of ice-cold 20 μl 0.50 M HCl and incubation on ice for further 20 min. […]

SMILES | EC50
CC[C@H](C)[C@@H]1NC(=O)[C@H](CCC(=O)O)NC(=O)[C@@H](NC(=O)[C@@H](N)[C@@H](C)O)CSSC[C@@H]2NC(=O)[C@H](C)NC(=O)[C@H](C)NC(=O)[C@H](Cc3ccc(O)cc3)NC(=O)[C@H](C)NC(=O)[C@H](CSSC[C@@H](C(=O)N[C@@H](CC(C)C)C(=O)N[C@@H](CCCCN)C(=O)N[C@@H](CCCCN)C(N)=O)NC(=O)CNC(=O)[C@H]([C@@H](C)O)NC2=O)NC1=O [Compound 9, Des-Pro^1, des-Asn^2Guanylin-LKK-NH2 fully oxidised(1-3, 2-4) (rat/mouse): H-TCEICAYAACTGCLKK-NH2 oxidised(1-3, 2-4)] (H-TCEICAYAACTGCLKK-NH2; disulfide 2-10, 5-13) | 59 µM
CC[C@H](C)[C@@H]1NC(=O)[C@H](CCC(=O)O)NC(=O)[C@@H](NC(=O)[C@@H](N)[C@@H](C)O)CSSC[C@@H]2NC(=O)[C@H](C)NC(=O)[C@H](C)NC(=O)[C@H](Cc3ccc(O)cc3)NC(=O)[C@H](C)NC(=O)[C@H](CSSC[C@@H](C(=O)N[C@@H](CC(C)C)C(=O)N[C@@H](CCCCN)C(=O)N[C@@H](CCCCN)C(N)=O)NC(=O)CNC(=O)[C@H]([C@@H](C)O)NC2=O)NC1=O [Compound 10, des-Pro^1, des-Asn^2Guanylin-LKK-NH2 fully oxidised(1-3,2-4):] (H-TCEICAYAACTGCLKK-NH2; disulfide 2-10, 5-13) | > 100 µM
